No constants are given. Whether binding was seen depends on the method and setting. In cells and extracts the contact can be indirect. Some binding calls cover weakened binding; strength is not graded here.
Key:
[1] = molecular target: DEAD-box helicase 3, X-linked (mouse (endogenous in BMDMs and primary hepatocytes)) (UniProt Q62167); test: co-IP; endogenous proteins in mouse primary hepatocytes under PA induction; bait not given
[2] = molecular target: DEAD-box helicase 3, X-linked (mouse (endogenous in BMDMs and primary hepatocytes)) (UniProt Q62167); test: co-IP; endogenous proteins in mouse BMDMs under PA induction; bait not given

Protein sequences, listed by entry. Tags and fused reporters are not part of them.
UniProt Q62167: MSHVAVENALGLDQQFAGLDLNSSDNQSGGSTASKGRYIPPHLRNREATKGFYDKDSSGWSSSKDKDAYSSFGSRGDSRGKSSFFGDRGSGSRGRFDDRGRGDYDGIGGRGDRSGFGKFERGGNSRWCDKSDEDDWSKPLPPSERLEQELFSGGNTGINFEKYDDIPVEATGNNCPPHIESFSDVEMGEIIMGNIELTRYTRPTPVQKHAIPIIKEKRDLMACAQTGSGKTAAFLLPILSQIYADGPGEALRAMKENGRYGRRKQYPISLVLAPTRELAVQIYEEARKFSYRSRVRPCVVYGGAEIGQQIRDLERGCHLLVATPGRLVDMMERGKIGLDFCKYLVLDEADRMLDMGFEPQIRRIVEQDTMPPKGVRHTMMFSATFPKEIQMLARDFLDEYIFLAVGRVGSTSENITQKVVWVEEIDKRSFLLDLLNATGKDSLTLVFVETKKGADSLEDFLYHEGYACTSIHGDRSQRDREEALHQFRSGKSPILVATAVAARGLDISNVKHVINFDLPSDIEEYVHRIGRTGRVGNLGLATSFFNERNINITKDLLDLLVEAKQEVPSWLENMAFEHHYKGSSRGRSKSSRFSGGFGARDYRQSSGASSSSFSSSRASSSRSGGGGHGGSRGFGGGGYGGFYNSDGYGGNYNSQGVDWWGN
UniProt Q8R4B8: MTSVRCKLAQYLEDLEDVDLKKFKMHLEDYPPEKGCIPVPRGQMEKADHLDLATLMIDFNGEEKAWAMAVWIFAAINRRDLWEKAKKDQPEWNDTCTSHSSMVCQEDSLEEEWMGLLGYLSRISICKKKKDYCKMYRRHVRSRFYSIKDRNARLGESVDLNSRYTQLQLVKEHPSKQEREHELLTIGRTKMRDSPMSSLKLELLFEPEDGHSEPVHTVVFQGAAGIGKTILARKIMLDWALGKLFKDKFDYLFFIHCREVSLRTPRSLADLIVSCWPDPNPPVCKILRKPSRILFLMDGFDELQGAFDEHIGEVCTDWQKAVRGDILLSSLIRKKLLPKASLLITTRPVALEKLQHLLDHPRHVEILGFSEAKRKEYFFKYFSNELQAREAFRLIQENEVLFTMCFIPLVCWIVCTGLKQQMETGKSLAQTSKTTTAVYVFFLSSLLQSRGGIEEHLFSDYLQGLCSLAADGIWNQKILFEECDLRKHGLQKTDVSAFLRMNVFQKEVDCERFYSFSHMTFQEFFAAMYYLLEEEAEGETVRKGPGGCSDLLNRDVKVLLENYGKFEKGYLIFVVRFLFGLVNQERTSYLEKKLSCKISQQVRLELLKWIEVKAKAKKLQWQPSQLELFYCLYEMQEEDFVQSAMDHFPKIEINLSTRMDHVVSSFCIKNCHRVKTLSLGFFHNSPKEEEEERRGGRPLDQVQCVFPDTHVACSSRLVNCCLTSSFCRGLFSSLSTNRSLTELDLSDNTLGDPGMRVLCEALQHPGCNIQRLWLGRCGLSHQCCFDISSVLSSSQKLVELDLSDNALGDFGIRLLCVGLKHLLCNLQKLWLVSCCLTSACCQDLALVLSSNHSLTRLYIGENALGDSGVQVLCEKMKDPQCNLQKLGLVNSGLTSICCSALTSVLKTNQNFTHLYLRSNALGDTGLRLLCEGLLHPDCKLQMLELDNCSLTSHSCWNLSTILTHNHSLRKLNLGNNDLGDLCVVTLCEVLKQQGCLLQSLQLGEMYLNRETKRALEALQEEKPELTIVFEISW

binding [1]: binds
binding [2]: binds
Substance: NOD-like receptor family pyrin domain containing 3 (from UniProt Q8R4B8 1-1033)

Source: paper PMC10712874
